Reference: patent publication US20090177280A1, “Implant With Multiple Coating” (priority 2005, published 2009)
Entries after “also recorded” stand apart in the source; their conditions may differ. At least one structure is not confirmed: it was looked up by name or label, or the drawing left a doubt.

Test: Release of rapamycin from spray-coated microporous stents (UV spectroscopy at 280 nm)
Format: physicochemical
Conditions: rosiglitazone 0.5% with rapamycin 1% in ethanol vs 1% rapamycin alone
Method: Microporous stents are spray-coated by means of a unique stent-coating machine (Wessely et al, supra). Attachment of a drug-reservoir is required to supply one or multiple drugs of choice. Besides sirolimus (rapamycin) we included a second drug at different concentrations to examine whether release kinetics of the primary compound (e.g. sirolimus) could be altered. Released rapamycin from the stent platform were measured at distinctive time points as previously described (Wessely, supra) by means of UV spectroscopy at a wave length of 280 nm.
The experiment was carried out as Example 1 with the exception that 17β estradiol was used as second drug.
The experiment was carried out as Example 1 with the exception that rosiglitazone was used as second drug.
The experiment was carried out as Example 1 with the exception that probucol was used as second drug.

CN(CCOc1ccc(CC2SC(=O)NC2=O)cc1)c1ccccn1 (stereo not shown) [rosiglitazone]
effect of second drug on release kinetics of rapamycin: no detectable modulatory effect; also recorded: no retardation
